The other results are listed elsewhere or left out.
Assays:
Test in all cases: log2 fold change, soluble protein after heating vs DMSO (PISA); higher = thermal stabilisation; K562 cells, 10 uM, 30 min; active = over 0.2 and 3.5 SD of the protein, either way, in both replicates (recomputed)
[1] = compound: COC1=CC=C(C=C1)CN2C=CC3=C2C=C(C=C3)C(=O)NO
Method in brief: (§1)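 Soluble protein was quantified by TMTpro 16plex LC-MS/MS after channel sums were equalised. It was obtained as the supernatant after 21,000xg for 90 min from pooled aliquots of K562 cells (2×10^6 cells/mL, 10 μM compound, 30 min) heated for 3 min across 48°C-58°C and extracted in PBS with 0.5% NP-40 at 4°C. Thermal stability values are relative to control samples and come from duplicates. They are given as log2 fold changes.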

Amino acid sequences for entries named in this document (tags omitted). A change or cut given only in a name is not applied to a line headed by its entry.
UniProt P41219, whole entry, looked up: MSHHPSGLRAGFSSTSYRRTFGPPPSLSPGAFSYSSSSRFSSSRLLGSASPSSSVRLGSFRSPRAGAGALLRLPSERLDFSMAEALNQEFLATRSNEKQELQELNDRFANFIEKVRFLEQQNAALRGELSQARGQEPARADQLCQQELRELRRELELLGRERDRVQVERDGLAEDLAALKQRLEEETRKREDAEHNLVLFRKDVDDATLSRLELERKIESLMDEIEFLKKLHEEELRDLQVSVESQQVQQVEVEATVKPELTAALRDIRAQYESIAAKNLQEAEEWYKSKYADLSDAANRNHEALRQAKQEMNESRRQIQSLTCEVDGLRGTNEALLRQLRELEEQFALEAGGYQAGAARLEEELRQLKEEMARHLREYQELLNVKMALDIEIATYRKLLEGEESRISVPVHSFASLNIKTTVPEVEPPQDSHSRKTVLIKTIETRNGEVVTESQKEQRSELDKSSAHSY
UniProt Q8WY54: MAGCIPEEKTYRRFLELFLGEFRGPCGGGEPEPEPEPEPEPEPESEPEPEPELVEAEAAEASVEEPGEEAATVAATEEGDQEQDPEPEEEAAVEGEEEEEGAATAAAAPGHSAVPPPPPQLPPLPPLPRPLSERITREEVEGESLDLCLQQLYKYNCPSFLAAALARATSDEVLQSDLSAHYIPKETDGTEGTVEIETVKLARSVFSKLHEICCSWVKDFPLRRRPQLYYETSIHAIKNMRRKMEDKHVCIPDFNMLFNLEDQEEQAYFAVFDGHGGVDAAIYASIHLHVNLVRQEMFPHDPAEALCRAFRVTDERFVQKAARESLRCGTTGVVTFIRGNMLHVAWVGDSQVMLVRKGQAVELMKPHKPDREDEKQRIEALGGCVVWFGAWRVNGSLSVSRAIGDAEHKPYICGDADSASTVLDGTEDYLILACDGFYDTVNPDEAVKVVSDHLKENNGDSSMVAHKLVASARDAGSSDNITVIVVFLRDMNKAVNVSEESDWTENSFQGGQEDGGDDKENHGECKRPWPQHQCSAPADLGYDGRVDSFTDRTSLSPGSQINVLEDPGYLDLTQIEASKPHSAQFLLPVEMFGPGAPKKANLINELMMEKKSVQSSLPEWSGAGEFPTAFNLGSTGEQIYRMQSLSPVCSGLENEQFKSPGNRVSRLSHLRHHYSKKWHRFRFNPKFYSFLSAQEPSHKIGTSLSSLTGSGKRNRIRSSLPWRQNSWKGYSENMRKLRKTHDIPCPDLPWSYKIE
UniProt Q9HCU5: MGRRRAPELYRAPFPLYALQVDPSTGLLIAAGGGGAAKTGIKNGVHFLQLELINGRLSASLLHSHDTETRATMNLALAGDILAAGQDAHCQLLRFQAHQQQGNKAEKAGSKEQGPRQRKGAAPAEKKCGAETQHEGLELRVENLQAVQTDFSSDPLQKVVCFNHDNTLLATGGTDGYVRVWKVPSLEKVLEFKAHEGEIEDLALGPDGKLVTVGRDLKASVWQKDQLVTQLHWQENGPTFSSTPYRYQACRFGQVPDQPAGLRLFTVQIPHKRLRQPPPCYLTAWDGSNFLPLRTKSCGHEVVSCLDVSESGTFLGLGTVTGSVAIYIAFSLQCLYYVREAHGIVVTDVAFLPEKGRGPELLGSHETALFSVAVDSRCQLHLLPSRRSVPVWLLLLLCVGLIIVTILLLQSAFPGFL
UniProt Q99633: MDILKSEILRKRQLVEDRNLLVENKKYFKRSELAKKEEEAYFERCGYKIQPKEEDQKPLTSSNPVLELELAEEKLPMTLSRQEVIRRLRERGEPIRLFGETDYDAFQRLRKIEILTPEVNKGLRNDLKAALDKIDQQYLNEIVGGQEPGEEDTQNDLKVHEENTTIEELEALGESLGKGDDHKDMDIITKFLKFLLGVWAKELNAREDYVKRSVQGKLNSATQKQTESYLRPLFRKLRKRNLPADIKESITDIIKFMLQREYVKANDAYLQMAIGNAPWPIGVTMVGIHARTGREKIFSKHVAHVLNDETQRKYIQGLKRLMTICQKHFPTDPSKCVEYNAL
UniProt P13861, whole entry, looked up: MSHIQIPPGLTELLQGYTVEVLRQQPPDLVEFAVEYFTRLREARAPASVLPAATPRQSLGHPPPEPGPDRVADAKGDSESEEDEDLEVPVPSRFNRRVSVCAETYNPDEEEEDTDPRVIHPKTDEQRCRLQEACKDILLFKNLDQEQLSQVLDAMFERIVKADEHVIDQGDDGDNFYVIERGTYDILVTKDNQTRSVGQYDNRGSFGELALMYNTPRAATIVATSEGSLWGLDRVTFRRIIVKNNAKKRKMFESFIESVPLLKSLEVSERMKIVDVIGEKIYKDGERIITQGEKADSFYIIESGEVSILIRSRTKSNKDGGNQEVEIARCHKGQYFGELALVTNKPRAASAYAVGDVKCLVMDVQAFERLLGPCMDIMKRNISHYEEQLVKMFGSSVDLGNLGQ
UniProt Q9UMS4: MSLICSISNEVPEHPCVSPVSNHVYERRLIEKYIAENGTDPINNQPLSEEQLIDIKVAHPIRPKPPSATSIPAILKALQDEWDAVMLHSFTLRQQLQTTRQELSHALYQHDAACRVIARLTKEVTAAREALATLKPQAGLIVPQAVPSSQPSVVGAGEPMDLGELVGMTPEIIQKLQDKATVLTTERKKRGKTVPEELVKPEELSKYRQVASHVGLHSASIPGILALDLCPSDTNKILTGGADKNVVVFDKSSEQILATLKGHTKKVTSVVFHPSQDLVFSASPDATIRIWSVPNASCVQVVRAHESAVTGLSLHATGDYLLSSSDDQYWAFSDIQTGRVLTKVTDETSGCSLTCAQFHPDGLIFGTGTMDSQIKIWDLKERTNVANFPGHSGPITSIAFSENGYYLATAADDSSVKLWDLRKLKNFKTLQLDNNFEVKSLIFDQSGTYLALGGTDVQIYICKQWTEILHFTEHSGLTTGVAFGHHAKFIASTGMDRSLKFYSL
UniProt Q9NR22, whole entry, looked up: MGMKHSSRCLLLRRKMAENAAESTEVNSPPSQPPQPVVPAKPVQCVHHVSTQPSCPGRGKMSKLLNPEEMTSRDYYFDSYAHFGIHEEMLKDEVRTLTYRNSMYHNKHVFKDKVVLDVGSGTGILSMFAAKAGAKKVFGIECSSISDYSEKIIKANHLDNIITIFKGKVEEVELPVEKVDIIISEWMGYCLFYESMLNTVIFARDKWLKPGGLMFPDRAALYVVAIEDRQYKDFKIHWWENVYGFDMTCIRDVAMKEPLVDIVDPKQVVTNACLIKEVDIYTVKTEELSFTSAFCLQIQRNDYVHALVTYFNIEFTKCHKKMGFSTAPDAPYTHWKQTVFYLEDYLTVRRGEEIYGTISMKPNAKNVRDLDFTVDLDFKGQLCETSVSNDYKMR
UniProt Q92733: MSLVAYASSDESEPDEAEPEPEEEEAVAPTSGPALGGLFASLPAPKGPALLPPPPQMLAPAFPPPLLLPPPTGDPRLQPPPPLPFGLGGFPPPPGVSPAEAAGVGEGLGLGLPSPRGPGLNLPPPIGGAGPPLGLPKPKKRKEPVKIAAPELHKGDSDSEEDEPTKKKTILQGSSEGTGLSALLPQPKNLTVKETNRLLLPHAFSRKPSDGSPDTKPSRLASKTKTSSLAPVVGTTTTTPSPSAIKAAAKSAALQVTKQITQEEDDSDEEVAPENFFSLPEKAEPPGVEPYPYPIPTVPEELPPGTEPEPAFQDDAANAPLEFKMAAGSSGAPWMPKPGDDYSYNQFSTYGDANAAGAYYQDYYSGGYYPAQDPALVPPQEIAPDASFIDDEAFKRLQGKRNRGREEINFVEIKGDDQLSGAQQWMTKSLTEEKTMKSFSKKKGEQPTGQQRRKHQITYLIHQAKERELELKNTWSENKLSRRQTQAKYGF
UniProt Q66LE6: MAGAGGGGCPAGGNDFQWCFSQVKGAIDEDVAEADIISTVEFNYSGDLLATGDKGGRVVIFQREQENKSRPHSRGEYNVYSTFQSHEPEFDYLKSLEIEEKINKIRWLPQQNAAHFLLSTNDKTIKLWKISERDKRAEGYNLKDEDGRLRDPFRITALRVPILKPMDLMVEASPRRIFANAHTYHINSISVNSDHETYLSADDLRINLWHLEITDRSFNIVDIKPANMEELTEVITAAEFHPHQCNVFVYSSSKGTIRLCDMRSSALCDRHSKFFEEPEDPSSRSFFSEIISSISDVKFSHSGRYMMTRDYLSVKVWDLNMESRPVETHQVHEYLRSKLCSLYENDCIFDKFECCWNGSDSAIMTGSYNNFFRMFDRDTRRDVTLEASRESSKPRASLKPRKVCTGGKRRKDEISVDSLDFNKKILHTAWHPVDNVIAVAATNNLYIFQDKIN
UniProt O43172: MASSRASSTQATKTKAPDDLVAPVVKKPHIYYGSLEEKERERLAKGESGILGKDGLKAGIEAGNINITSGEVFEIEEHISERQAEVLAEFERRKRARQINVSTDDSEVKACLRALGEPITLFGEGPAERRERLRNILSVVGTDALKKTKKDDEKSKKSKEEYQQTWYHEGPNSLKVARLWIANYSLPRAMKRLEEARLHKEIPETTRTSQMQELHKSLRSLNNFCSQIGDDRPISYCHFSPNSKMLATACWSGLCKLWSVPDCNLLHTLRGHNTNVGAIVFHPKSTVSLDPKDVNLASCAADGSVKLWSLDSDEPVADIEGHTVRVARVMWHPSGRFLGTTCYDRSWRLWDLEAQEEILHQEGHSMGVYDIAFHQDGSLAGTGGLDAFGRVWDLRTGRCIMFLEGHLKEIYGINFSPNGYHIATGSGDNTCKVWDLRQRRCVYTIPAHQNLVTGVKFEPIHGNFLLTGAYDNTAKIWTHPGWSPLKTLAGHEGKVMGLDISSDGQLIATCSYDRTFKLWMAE
UniProt O60678: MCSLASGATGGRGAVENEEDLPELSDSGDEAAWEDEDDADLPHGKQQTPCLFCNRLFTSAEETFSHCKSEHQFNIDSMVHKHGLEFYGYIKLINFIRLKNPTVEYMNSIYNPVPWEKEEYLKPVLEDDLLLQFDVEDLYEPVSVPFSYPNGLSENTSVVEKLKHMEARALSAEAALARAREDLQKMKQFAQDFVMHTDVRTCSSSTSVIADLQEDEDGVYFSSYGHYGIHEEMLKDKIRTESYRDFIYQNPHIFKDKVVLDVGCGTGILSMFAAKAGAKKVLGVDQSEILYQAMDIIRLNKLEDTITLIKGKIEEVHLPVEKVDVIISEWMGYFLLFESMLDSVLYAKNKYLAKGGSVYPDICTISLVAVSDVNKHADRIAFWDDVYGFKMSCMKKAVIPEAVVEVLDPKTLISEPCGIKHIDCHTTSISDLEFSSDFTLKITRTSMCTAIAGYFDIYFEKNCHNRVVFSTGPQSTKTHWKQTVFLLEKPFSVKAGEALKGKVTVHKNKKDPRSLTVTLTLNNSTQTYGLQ
UniProt Q15435: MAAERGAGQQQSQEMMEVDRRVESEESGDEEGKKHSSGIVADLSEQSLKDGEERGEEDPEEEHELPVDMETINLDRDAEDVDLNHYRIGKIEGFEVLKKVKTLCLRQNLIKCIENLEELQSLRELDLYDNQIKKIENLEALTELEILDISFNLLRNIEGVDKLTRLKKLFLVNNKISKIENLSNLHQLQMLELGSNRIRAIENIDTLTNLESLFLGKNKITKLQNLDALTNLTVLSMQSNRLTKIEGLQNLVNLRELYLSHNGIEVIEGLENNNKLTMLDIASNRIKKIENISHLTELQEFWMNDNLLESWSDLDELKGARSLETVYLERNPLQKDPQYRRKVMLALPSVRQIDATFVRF
UniProt Q96SB3: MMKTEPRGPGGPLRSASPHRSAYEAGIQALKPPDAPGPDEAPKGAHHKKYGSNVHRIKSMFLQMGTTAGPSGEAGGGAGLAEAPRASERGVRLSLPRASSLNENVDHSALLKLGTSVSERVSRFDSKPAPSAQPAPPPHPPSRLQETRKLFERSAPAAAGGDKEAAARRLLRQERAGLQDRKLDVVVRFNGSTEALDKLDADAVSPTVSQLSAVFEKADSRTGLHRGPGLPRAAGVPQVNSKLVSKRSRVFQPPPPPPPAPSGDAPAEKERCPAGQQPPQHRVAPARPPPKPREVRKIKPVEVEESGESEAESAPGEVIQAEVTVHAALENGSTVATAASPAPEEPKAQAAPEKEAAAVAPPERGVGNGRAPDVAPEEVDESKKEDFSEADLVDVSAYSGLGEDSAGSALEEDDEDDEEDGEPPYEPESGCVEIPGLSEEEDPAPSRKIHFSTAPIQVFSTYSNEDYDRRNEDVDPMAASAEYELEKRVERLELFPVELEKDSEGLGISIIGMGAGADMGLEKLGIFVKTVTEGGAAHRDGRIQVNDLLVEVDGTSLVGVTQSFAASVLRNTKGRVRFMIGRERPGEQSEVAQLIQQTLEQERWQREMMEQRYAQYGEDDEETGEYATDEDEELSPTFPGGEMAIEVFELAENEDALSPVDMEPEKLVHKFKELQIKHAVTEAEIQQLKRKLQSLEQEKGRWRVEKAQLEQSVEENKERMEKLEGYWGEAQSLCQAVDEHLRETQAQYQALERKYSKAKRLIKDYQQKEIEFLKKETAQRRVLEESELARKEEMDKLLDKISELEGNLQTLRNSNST

filanesib = compound: CON(C)C(=O)N1N=C(c2cc(F)ccc2F)S[C@@]1(CCCN)c1ccccc1 [filanesib]
Method in brief: as §1

zotarolimus = compound: CO[C@H]1C[C@@H]2CC[C@@H](C)[C@@](O)(O2)C(=O)C(=O)N2CCCC[C@H]2C(=O)O[C@H]([C@H](C)C[C@@H]2CC[C@H](n3cnnn3)[C@H](OC)C2)CC(=O)[C@H](C)/C=C(\C)[C@@H](O)[C@@H](OC)C(=O)[C@H](C)C[C@H](C)/C=C/C=C/C=C/1C [zotarolimus]
Method in brief: as §1

idasanutlin = compound: COc1cc(C(=O)O)ccc1NC(=O)[C@@H]1N[C@@H](CC(C)(C)C)[C@](C#N)(c2ccc(Cl)cc2F)[C@H]1c1cccc(Cl)c1F [idasanutlin]
Method in brief: as §1

alisertib = compound: COc1cc(Nc2ncc3c(n2)-c2ccc(Cl)cc2C(c2c(F)cccc2OC)=NC3)ccc1C(=O)O [alisertib]
Method in brief: as §1

[2] = compound: COc1cc2nc(-c3cc(F)ccc3O)nc(N[C@@H]3CNC[C@H]3C(C)(C)O)c2cc1OC
Method in brief: as §1

gefitinib = compound: COc1cc2ncnc(Nc3ccc(F)c(Cl)c3)c2cc1OCCCN1CCOCC1 [gefitinib]
Method in brief: as §1

[3] = compound: COc1cccc2cc(-c3nc([C@H]4CC[C@H](C(=O)O)CC4)n4ncnc(N)c34)[nH]c12
Method in brief: as §1

lapatinib = compound: CS(=O)(=O)CCNCc1ccc(-c2ccc3ncnc(Nc4ccc(OCc5cccc(F)c5)c(Cl)c4)c3c2)o1 [lapatinib]
Method in brief: as §1

pictilisib = compound: CS(=O)(=O)N1CCN(Cc2cc3nc(-c4cccc5[nH]ncc45)nc(N4CCOCC4)c3s2)CC1 [pictilisib]
Method in brief: as §1

Measured: log2 fold change

PRPH isoform 2 (UniProt P41219)
inactive: [1] -0.333 | filanesib 0.32 | zotarolimus 0.043 | idasanutlin 0.188 | alisertib -0.236 | [2] -0.285 | gefitinib 0.011 | [3] -0.325 | lapatinib 0.23 | pictilisib -0.102

PPM1G (UniProt O15355)
inactive: [1] -0.011 | filanesib 0.014 | zotarolimus 0.028 | idasanutlin 0.066 | alisertib 0.019 | [2] 0.081 | gefitinib 0.044 | [3] -0.089 | lapatinib -0.052 | pictilisib 0.093

PRKACA (UniProt P17612)
inactive: [1] 0.05 | filanesib -0.076 | zotarolimus -0.034 | idasanutlin 0.006 | alisertib -0.078 | [2] 0.088 | gefitinib -0.004 | [3] 0.028 | lapatinib 0.025 | pictilisib 0.068

PRKAB1 (UniProt Q9Y478)
inactive: [1] 0.024 | filanesib -0.022 | zotarolimus 0.07 | idasanutlin -0.223 | alisertib -0.105 | [2] -0.034 | gefitinib -0.024 | [3] 0.05 | lapatinib -0.049 | pictilisib -0.063

PPM1E (UniProt Q8WY54)
inactive: [1] -0.069 | filanesib 0.002 | zotarolimus 0.065 | idasanutlin -0.08 | alisertib -0.052 | [2] 0.094 | gefitinib -0.006 | [3] 0.142 | lapatinib 0.004 | pictilisib 0.056

PRMT7 (UniProt Q9NVM4)
inactive: [1] -0.174 | filanesib -0.072 | zotarolimus -0.008 | idasanutlin -0.004 | alisertib -0.073 | [2] -0.037 | gefitinib 0.05 | [3] -0.018 | lapatinib 0.026 | pictilisib -0.009

2 consecutive entries from above, quoted:
PRKAB1 (UniProt Q9Y478)
inactive: [1] 0.024 | filanesib -0.022 | zotarolimus 0.07 | idasanutlin -0.223 | alisertib -0.105 | [2] -0.034 | gefitinib -0.024 | [3] 0.05 | lapatinib -0.049 | pictilisib -0.063

PPM1E (UniProt Q8WY54)
inactive: [1] -0.069 | filanesib 0.002 | zotarolimus 0.065 | idasanutlin -0.08 | alisertib -0.052 | [2] 0.094 | gefitinib -0.006 | [3] 0.142 | lapatinib 0.004 | pictilisib 0.056

Additional entries.

PPP1R2 (UniProt P41236)
inactive: [1] 0.05 | filanesib -0.022 | zotarolimus -0.002 | idasanutlin 0.005 | alisertib -0.008 | [2] -0.023 | gefitinib -0.03 | [3] 0.091 | lapatinib -0.004 | pictilisib 0.009

PRKAR1A (UniProt P10644)
inactive: [1] 0.079 | filanesib 0.042 | zotarolimus 0.046 | idasanutlin -0.045 | alisertib -0.075 | [2] 0.131 | gefitinib 0.046 | [3] -0.132 | lapatinib 0 | pictilisib 0.206

PREB (UniProt Q9HCU5)
inactive: [1] -0.029 | filanesib -0.068 | zotarolimus -0.006 | idasanutlin 0.009 | alisertib 0.1 | [2] 0.04 | gefitinib -0.008 | [3] 0.019 | lapatinib 0.019 | pictilisib 0.053

PRPF18 (UniProt Q99633)
inactive: [1] 0 | filanesib -0.009 | zotarolimus 0.012 | idasanutlin -0.024 | alisertib 0.012 | [2] -0.05 | gefitinib 0.089 | [3] 0.042 | lapatinib 0.025 | pictilisib -0.015

PRKAR2A (UniProt P13861)
inactive: [1] -0.033 | filanesib -0.021 | zotarolimus 0.013 | idasanutlin -0.009 | alisertib -0.058 | gefitinib 0.048 | [3] 0.006 | lapatinib 0.034 | pictilisib 0.057
active: [2] -0.493

PRPF19 (UniProt Q9UMS4)
inactive: [1] -0.013 | filanesib -0.013 | zotarolimus -0.014 | idasanutlin -0.045 | alisertib -0.043 | [2] 0.055 | gefitinib -0.001 | [3] 0.048 | lapatinib -0.012 | pictilisib -0.017

PRKCG (UniProt P05129)
inactive: [1] -0.071 | filanesib 0.019 | zotarolimus 0.118 | idasanutlin -0.011 | alisertib -0.01 | [2] 0.098 | gefitinib -0.025 | [3] -0.17 | lapatinib 0.055 | pictilisib 0.113

PRKAB2 (UniProt O43741)
inactive: [1] 0.038 | filanesib -0.167 | zotarolimus 0.109 | idasanutlin 0.14 | alisertib 0.053 | [2] -0.074 | gefitinib 0.004 | [3] 0.057 | lapatinib 0.131 | pictilisib 0.111

PRMT8 (UniProt Q9NR22)
inactive: [1] -0.143 | filanesib -0.162 | zotarolimus -0.014 | idasanutlin -0.109 | alisertib -0.028 | [2] -0.019 | gefitinib 0.002 | [3] 0.042 | lapatinib 0.145 | pictilisib 0.025

PPP1R14C (UniProt Q8TAE6)
inactive: [1] -0.145 | filanesib 0.103 | zotarolimus -0.006 | idasanutlin -0.288 | alisertib 0.003 | [2] -0.079 | gefitinib 0.037 | [3] 0.178 | lapatinib -0.117 | pictilisib 0.096

PRCC (UniProt Q92733)
inactive: [1] -0.03 | filanesib -0.037 | zotarolimus -0.005 | idasanutlin 0.046 | alisertib -0.037 | [2] 0 | gefitinib -0.006 | [3] 0.066 | lapatinib -0.024 | pictilisib -0.078

PPP1CA (UniProt P62136)
active: [1] 0.263
inactive: filanesib 0.012 | zotarolimus -0.032 | idasanutlin 0.016 | alisertib 0.024 | [2] 0.015 | gefitinib 0.032 | [3] 0.023 | lapatinib 0.001 | pictilisib 0.013

PPP2R2D (UniProt Q66LE6)
inactive: [1] -0.047 | filanesib -0.027 | zotarolimus -0.06 | idasanutlin 0.075 | alisertib -0.15 | [2] -0.026 | gefitinib 0.075 | [3] 0.021 | lapatinib -0.244 | pictilisib 0.022

PPT1 (UniProt P50897)
active: filanesib -0.241
inactive: [1] 0.021 | zotarolimus -0.043 | idasanutlin 0.005 | alisertib -0.041 | [2] -0.041 | gefitinib -0.03 | [3] 0.074 | lapatinib -0.038 | pictilisib 0.052

PQBP1 (UniProt O60828)
inactive: [1] -0.032 | filanesib 0.066 | zotarolimus 0.008 | idasanutlin -0.031 | alisertib 0.005 | [2] -0.009 | gefitinib -0.02 | [3] 0.041 | lapatinib -0.051 | pictilisib 0.002

PRAME (UniProt P78395)
inactive: [1] 0.026 | filanesib 0.151 | zotarolimus -0.004 | idasanutlin 0.088 | alisertib 0.003 | [2] -0.042 | gefitinib -0.049 | [3] -0.155 | lapatinib 0.089 | pictilisib -0.099

PRPF4 (UniProt O43172)
inactive: [1] 0.063 | filanesib 0.013 | zotarolimus 0.026 | idasanutlin -0.038 | alisertib -0.029 | [2] -0.067 | gefitinib 0.002 | [3] -0.027 | lapatinib 0.029 | pictilisib -0.004

PRMT3 (UniProt O60678)
inactive: [1] 0.026 | filanesib -0.099 | zotarolimus 0.008 | idasanutlin -0.017 | alisertib -0.005 | [2] 0.098 | gefitinib -0.122 | [3] -0.111 | lapatinib 0.013 | pictilisib 0.048

PROS1 (UniProt P07225)
inactive: [1] -0.038 | filanesib 0.072 | zotarolimus -0.044 | idasanutlin 0.081 | alisertib 0.047 | [2] -0.062 | gefitinib -0.017 | [3] 0.212 | lapatinib -0.035 | pictilisib 0.017

PPP1R7 (UniProt Q15435)
inactive: [1] -0.032 | filanesib -0.08 | zotarolimus -0.017 | idasanutlin -0.065 | alisertib -0.039 | [2] 0.008 | gefitinib -0.002 | [3] 0.026 | lapatinib -0.038 | pictilisib -0.008

PRIM2 (UniProt P49643)
inactive: [1] 0.044 | filanesib -0.139 | zotarolimus -0.132 | idasanutlin 0.03 | alisertib -0.042 | [2] 0.063 | gefitinib 0.069 | [3] -0.033 | lapatinib -0.005 | pictilisib 0.086

PRKCE (UniProt Q02156)
inactive: [1] -0.024 | filanesib -0.082 | zotarolimus 0 | idasanutlin -0.085 | alisertib -0.078 | [2] 0.012 | gefitinib 0.029 | [3] -0.104 | lapatinib 0.025 | pictilisib 0.099

PPP1R9B (UniProt Q96SB3)
inactive: [1] -0.205 | filanesib 0.15 | zotarolimus -0.052 | idasanutlin 0.073 | alisertib -0.028 | [2] 0.047 | gefitinib 0.172 | [3] 0.005 | lapatinib -0.121 | pictilisib -0.1
